Plain letter strings leave the end groups untold.
Assay: peptide made by a vendor (Fmoc solid-phase peptide synthesis)
Conditions: whole synthesis, 220 nm, TFA salts

Sequence	final HPLC purity [%]
RWRWRWRWRWRW	96.9
RWRWRWPRWRWRW	96.7
RWRWRWRW	98.4
RWRWPRWRW	96.2
RWRWRWRWRWRWRWRW	95.8
RWRWPRWRWPRWRW	95.2
RWRWRWRWPRWRWRWRW	96.2

Source: article PMC12368660 (ACS Omega, 2025)
